Assay results as given in PMC12065913.
These are yes or no findings as the source states them, for the method shown. Some entries that bind do so weakly or less than the wild type.

Amino acid sequences for entries named in this document (tags omitted).
UniProt P0A6F5: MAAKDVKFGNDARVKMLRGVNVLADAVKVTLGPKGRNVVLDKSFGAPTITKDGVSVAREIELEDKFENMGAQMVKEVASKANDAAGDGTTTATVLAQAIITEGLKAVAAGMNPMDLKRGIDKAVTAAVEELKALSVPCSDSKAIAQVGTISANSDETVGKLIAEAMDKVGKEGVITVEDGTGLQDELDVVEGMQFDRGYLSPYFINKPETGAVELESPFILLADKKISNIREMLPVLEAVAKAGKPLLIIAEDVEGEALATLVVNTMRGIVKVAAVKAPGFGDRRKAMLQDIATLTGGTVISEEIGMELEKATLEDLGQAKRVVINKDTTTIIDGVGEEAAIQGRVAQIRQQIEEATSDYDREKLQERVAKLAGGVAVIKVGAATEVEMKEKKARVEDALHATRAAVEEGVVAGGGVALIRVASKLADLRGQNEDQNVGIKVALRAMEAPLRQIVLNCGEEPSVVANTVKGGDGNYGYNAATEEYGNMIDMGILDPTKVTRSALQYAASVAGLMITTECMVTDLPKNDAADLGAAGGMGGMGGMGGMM
UniProt P0A6Y8: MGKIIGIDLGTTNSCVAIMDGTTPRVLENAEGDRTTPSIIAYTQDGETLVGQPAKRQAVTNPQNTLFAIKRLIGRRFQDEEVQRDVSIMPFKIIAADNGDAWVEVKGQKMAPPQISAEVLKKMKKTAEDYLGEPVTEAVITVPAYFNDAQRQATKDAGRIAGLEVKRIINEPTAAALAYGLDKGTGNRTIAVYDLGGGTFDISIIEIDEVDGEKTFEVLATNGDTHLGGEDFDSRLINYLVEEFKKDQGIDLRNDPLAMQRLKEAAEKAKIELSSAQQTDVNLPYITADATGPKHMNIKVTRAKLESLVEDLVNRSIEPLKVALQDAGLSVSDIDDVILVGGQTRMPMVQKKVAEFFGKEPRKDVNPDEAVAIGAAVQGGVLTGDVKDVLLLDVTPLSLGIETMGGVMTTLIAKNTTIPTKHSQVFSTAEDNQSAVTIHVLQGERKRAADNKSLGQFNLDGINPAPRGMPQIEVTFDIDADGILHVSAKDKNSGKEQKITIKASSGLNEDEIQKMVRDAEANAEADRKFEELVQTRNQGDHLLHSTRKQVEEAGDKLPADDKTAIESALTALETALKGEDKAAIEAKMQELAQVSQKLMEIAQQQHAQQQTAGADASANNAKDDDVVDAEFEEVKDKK

How the values were obtained:
[1] = target: GroEL (E. coli (endogenous in MC4100)) (UniProt P0A6F5); assay: selective ribosome profiling (immunoprecipitation of chaperone-bound ribosome-nascent chain complexes, sequencing of the mRNA footprints); GroEL immunoprecipitated with anti-GroEL antibody from ATP-depleted lysate cross-linked with 60 mM EDC; WT, Δtig and ΔdnaK strain backgrounds; selected translatome normalised by the total translatome
[2] = target: DnaK (E. coli (endogenous in MC4100)) (UniProt P0A6Y8); assay: selective ribosome profiling (immunoprecipitation of chaperone-bound ribosome-nascent chain complexes, sequencing of the mRNA footprints); DnaK immunoprecipitated with anti-DnaK antibody on Dynabeads from ATP-depleted (hexokinase) lysate after MNase digest and sucrose cushion; selected translatome normalised by the total translatome
[3] = target: DnaK (E. coli (endogenous in E. coli cells)) (UniProt P0A6Y8); assay: selective ribosome profiling (SeRP); immunoprecipitation of DnaK (anti-DnaK antibody on Dynabeads) with ribosome-nascent chain complexes; ATP depleted with hexokinase; MNase digest, sucrose cushion; ribosome footprints sequenced

Row | Binder | binding [1] | other results
1 | nascent LeuA (protein, UniProt P09151 1-523) MSQQVIIFDTTLRDGEQALQASLSVKEKLQIALALERMGVDVMEVGFPVSSPGDFESVQTIARQVKNSRVCALARCVEKDIDVAAESLKVAEAFRIHTFIATSPMHIATKLRSTLDEVIERAIYMVKRARNYTDDVEFSCEDAGRTPIADLARVVEAAINAGATTINIPDTVGYTMPFEFAGIISGLYERVPNIDKAIISVHTHDDLGLAVGNSLAAVHAGARQVEGAMNGIGERAGNCSLEEVIMAIKVRKDILNVHTAINHQEIWRTSQLVSQICNMPIPANKAIVGSGAFAHSSGIHQDGVLKNRENYEIMTPESIGLNQIQLNLTSRSGRAAVKHRMDEMGYKESEYNLDNLYDAFLKLADKKGQVFDYDLEALAFIGKQQEEPEHFRLDYFSVQSGSNDIATAAVKLACGEEVKAEAANGNGPVDAVYQAINRITEYNVELVKYSLTAKGHGKDALGQVDIVANYNGRRFHGVGLATDIVESSAKAMVHVLNNIWRAAEVEKELQRKAQHNENNKETV | binds | 
2 | nascent RecC (protein, UniProt P07648 1-1122) MLRVYHSNRLDVLEALMEFIVERERLDDPFEPEMILVQSTGMAQWLQMTLSQKFGIAANIDFPLPASFIWDMFVRVLPEIPKESAFNKQSMSWKLMTLLPQLLEREDFTLLRHYLTDDSDKRKLFQLSSKAADLFDQYLVYRPDWLAQWETGHLVEGLGEAQAWQAPLWKALVEYTHQLGQPRWHRANLYQRFIETLESATTCPPGLPSRVFICGISALPPVYLQALQALGKHIEIHLLFTNPCRYYWGDIKDPAYLAKLLTRQRRHSFEDRELPLFRDSENAGQLFNSDGEQDVGNPLLASWGKLGRDYIYLLSDLESSQELDAFVDVTPDNLLHNIQSDILELENRAVAGVNIEEFSRSDNKRPLDPLDSSITFHVCHSPQREVEVLHDRLLAMLEEDPTLTPRDIIVMVADIDSYSPFIQAVFGSAPADRYLPYAISDRRARQSHPVLEAFISLLSLPDSRFVSEDVLALLDVPVLAARFDITEEGLRYLRQWVNESGIRWGIDDDNVRELELPATGQHTWRFGLTRMLLGYAMESAQGEWQSVLPYDESSGLIAELVGHLASLLMQLNIWRRGLAQERPLEEWLPVCRDMLNAFFLPDAETEAAMTLIEQQWQAIIAEGLGAQYGDAVPLSLLRDELAQRLDQERISQRFLAGPVNICTLMPMRSIPFKVVCLLGMNDGVYPRQLAPLGFDLMSQKPKRGDRSRRDDDRYLFLEALISAQQKLYISYIGRSIQDNSERFPSVLVQELIDYIGQSHYLPGDEALNCDESEARVKAHLTCLHTRMPFDPQNYQPGERQSYAREWLPAASQAGKAHSEFVQPLPFTLPETVPLETLQRFWAHPVRAFFQMRLQVNFRTEDSEIPDTEPFILEGLSRYQINQQLLNALVEQDDAERLFRRFRAAGDLPYGAFGEIFWETQCQEMQQLADRVIACRQPGQSMEIDLACNGVQITGWLPQVQPDGLLRWRPSLLSVAQGMQLWLEHLVYCASGGNGESRLFLRKDGEWRFPPLAAEQALHYLSQLIEGYREGMSAPLLVLPESGGAWLKTCYDAQNDAMLDDDSTLQKARTKFLQAYEGNMMVRGEGDDIWYQRLWRQLTPETMEAIVEQSQRFLLPLFRFNQS |  | binding [2]: binds
3 | nascent ValS (protein, UniProt P07118 1-951) MEKTYNPQDIEQPLYEHWEKQGYFKPNGDESQESFCIMIPPPNVTGSLHMGHAFQQTIMDTMIRYQRMQGKNTLWQVGTDHAGIATQMVVERKIAAEEGKTRHDYGREAFIDKIWEWKAESGGTITRQMRRLGNSVDWERERFTMDEGLSNAVKEVFVRLYKEDLIYRGKRLVNWDPKLRTAISDLEVENRESKGSMWHIRYPLADGAKTADGKDYLVVATTRPETLLGDTGVAVNPEDPRYKDLIGKYVILPLVNRRIPIVGDEHADMEKGTGCVKITPAHDFNDYEVGKRHALPMINILTFDGDIRESAQVFDTKGNESDVYSSEIPAEFQKLERFAARKAVVAAVDALGLLEEIKPHDLTVPYGDRGGVVIEPMLTDQWYVRADVLAKPAVEAVENGDIQFVPKQYENMYFSWMRDIQDWCISRQLWWGHRIPAWYDEAGNVYVGRNEDEVRKENNLGADVVLRQDEDVLDTWFSSALWTFSTLGWPENTDALRQFHPTSVMVSGFDIIFFWIARMIMMTMHFIKDENGKPQVPFHTVYMTGLIRDDEGQKMSKSKGNVIDPLDMVDGISLPELLEKRTGNMMQPQLADKIRKRTEKQFPNGIEPHGTDALRFTLAALASTGRDINWDMKRLEGYRNFCNKLWNASRFVLMNTEGQDCGFNGGEMTLSLADRWILAEFNQTIKAYREALDSFRFDIAAGILYEFTWNQFCDWYLELTKPVMNGGTEAELRGTRHTLVTVLEGLLRLAHPIIPFITETIWQRVKVLCGITADTIMLQPFPQYDASQVDEAALADTEWLKQAIVAVRNIRAEMNIAPGKPLELLLRGCSADAERRVNENRGFLQTLARLESITVLPADDKGPVSVTKIIDGAELLIPMAGLINKEDELARLAKEVAKIEGEISRIENKLANEGFVARAPEAVIAKEREKLEGYAEAKAKLIEQQAVIAAL |  | binding [3]: binds
4 | nascent PlsB (protein, UniProt P0A7A7 1-807) MSGWPRIYYKLLNLPLSILVKSKSIPADPAPELGLDTSRPIMYVLPYNSKADLLTLRAQCLAHDLPDPLEPLEIDGTLLPRYVFIHGGPRVFTYYTPKEESIKLFHDYLDLHRSNPNLDVQMVPVSVMFGRAPGREKGEVNPPLRMLNGVQKFFAVLWLGRDSFVRFSPSVSLRRMADEHGTDKTIAQKLARVARMHFARQRLAAVGPRLPARQDLFNKLLASRAIAKAVEDEARSKKISHEKAQQNAIALMEEIAANFSYEMIRLTDRILGFTWNRLYQGINVHNAERVRQLAHDGHELVYVPCHRSHMDYLLLSYVLYHQGLVPPHIAAGINLNFWPAGPIFRRLGAFFIRRTFKGNKLYSTVFREYLGELFSRGYSVEYFVEGGRSRTGRLLDPKTGTLSMTIQAMLRGGTRPITLIPIYIGYEHVMEVGTYAKELRGATKEKESLPQMLRGLSKLRNLGQGYVNFGEPMPLMTYLNQHVPDWRESIDPIEAVRPAWLTPTVNNIAADLMVRINNAGAANAMNLCCTALLASRQRSLTREQLTEQLNCYLDLMRNVPYSTDSTVPSASASELIDHALQMNKFEVEKDTIGDIIILPREQAVLMTYYRNNIAHMLVLPSLMAAIVTQHRHISRDVLMEHVNVLYPMLKAELFLRWDRDELPDVIDALANEMQRQGLITLQDDELHINPAHSRTLQLLAAGARETLQRYAITFWLLSANPSINRGTLEKESRTVAQRLSVLHGINAPEFFDKAVFSSLVLTLRDEGYISDSGDAEPAETMKVYQLLAELITSDVRLTIESATQGEG |  | binding [2]: binds

Second part, led by results:

Row | binding [1] | Binder | other results
5 | binds | nascent GltA (protein, UniProt P0ABH7 1-427) MADTKAKLTLNGDTAVELDVLKGTLGQDVIDIRTLGSKGVFTFDPGFTSTASCESKITFIDGDEGILLHRGFPIDQLATDSNYLEVCYILLNGEKPTQEQYDEFKTTVTRHTMIHEQITRLFHAFRRDSHPMAVMCGITGALAAFYHDSLDVNNPRHREIAAFRLLSKMPTMAAMCYKYSIGQPFVYPRNDLSYAGNFLNMMFSTPCEPYEVNPILERAMDRILILHADHEQNASTSTVRTAGSSGANPFACIAAGIASLWGPAHGGANEAALKMLEEISSVKHIPEFVRRAKDKNDSFRLMGFGHRVYKNYDPRATVMRETCHEVLKELGTKDDLLEVAMELENIALNDPYFIEKKLYPNVDFYSGIILKAMGIPSSMFTVIFAMARTVGWIAHWSEMHSDGMKIARPRQLYTGYEKRDFKSDIKR | 
6 | binds | nascent MaeA (protein, UniProt P26616 1-565) MEPKTKKQRSLYIPYAGPVLLEFPLLNKGSAFSMEERRNFNLLGLLPEVVETIEEQAERAWIQYQGFKTEIDKHIYLRNIQDTNETLFYRLVNNHLDEMMPVIYTPTVGAACERFSEIYRRSRGVFISYQNRHNMDDILQNVPNHNIKVIVVTDGERILGLGDQGIGGMGIPIGKLSLYTACGGISPAYTLPVVLDVGTNNQQLLNDPLYMGWRNPRITDDEYYEFVDEFIQAVKQRWPDVLLQFEDFAQKNAMPLLNRYRNEICSFNDDIQGTAAVTVGTLIAASRAAGGQLSEKKIVFLGAGSAGCGIAEMIISQTQREGLSEEAARQKVFMVDRFGLLTDKMPNLLPFQTKLVQKRENLSDWDTDSDVLSLLDVVRNVKPDILIGVSGQTGLFTEEIIREMHKHCPRPIVMPLSNPTSRVEATPQDIIAWTEGNALVATGSPFNPVVWKDKIYPIAQCNNAFIFPGIGLGVIASGASRITDEMLMSASETLAQYSPLVLNGEGMVLPELKDIQKVSRAIAFAVGKMAQQQGVAVKTSAEALQQAIDDNFWQAEYRDYRRTSI | 
7 | binds | nascent HflK (protein, UniProt P0ABC7 1-419) MAWNQPGNNGQDRDPWGSSKPGGNSEGNGNKGGRDQGPPDLDDIFRKLSKKLGGLGGGKGTGSGGGSSSQGPRPQLGGRVVTIAAAAIVIIWAASGFYTIKEAERGVVTRFGKFSHLVEPGLNWKPTFIDEVKPVNVEAVRELAASGVMLTSDENVVRVEMNVQYRVTNPEKYLYSVTSPDDSLRQATDSALRGVIGKYTMDRILTEGRTVIRSDTQRELEETIRPYDMGITLLDVNFQAARPPEEVKAAFDDAIAARENEQQYIREAEAYTNEVQPRANGQAQRILEEARAYKAQTILEAQGEVARFAKLLPEYKAAPEITRERLYIETMEKVLGNTRKVLVNDKGGNLMVLPLDQMLKGGNAPAAKSDNGASNLLRLPPASSSTTSGASNTSSTSQGDIMDQRRANAQRNDYQRQGE | 
